Reference: the supplement of paper PMC4604168 (melanoma cell lines)
Some of the results follow. Repeats are few or missing, and single values can be far off.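 Imaging used 1,536-well plates; nuclei positive for cleaved PARP by antibody were divided by total DNA-stained nuclei to yield the apoptosis fraction. Doses for screening kept most cells viable, and cell lines differ markedly in resting and induced cleaved-PARP levels.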

Tested on: COLO792
Assay: cleaved PARP positive nuclei fraction relative to DMSO control; melanoma cells; higher = more apoptosis
Conditions: library dose: low library concentration; 72 h

Going from `NCC(=O)Nc1ccc(-n2nc(C(F)(F)F)cc2-c2ccc3c(ccc4ccccc43)c2)cc1` + Oc1cc(-c2nc(-c3ccccc3)[nH]c2-c2ccncc2)ccc1Cl [L779450] (first compound 1 µM, partner dose 0.2 µM) to `COc1cc2ncnc(Nc3ccc(Oc4ccccc4)cc3)c2cc1OC` + Oc1cc(-c2nc(-c3ccccc3)[nH]c2-c2ccncc2)ccc1Cl [L779450] (first compound 2 µM, partner dose 0.2 µM), the “cleaved PARP positive nuclei fraction” value rises from 16.7% to 75.7%.

Compared with `COc1cc2c(Oc3ccc4[nH]c(C)cc4c3F)ncnc2cc1OCCCN1CCCC1` [cediranib] + O=C1NC(=O)/C(=C/c2ccc(-c3ccc(F)cc3O)o2)S1 [AS252424] (first compound 0.4 µM, partner dose 1 µM), `COc1cc2ncnc(Nc3ccc(Oc4ccccc4)cc3)c2cc1OC` + c1cc(-c2cnn3cc(-c4ccc(OCCN5CCCCC5)cc4)cnc23)ccn1 [Dorsomorphin] (first compound 2 µM, partner dose 0.4 µM) is lower in “cleaved PARP positive nuclei fraction” value: 101% for the first, 81.1% for the second.

First: CN(C)S(=O)(=O)c1ccc2c(c1)/C(=C/c1cc3c([nH]1)CCCC3)C(=O)N2 + Cn1cc(/C=C2\C(=O)Nc3cccnc32)c2ccccc21 [GW441756] (first compound 0.4 µM, partner dose 0.4 µM)
Second: COc1cc2c(Oc3ccc4[nH]c(C)cc4c3F)ncnc2cc1OCCCN1CCCC1 [cediranib] + CCCCCCCCCCCC1=C(O)C(=O)C=C(O)C1=O [Embelin] (first compound 0.4 µM, partner dose 1.2 µM)
The “cleaved PARP positive nuclei fraction” value of the first is lower: 22.1% for the first, 80.6% for the second.

Going from `N#Cc1c(O)c2c(-c3ccc(-c4ccccc4O)cc3)csc2[nH]c1=O` + Cn1cc(/C=C2\C(=O)Nc3cccnc32)c2ccccc21 [GW441756] (first compound 2 µM, partner dose 0.4 µM) to `Oc1cc(-c2nc(-c3ccccc3)[nH]c2-c2ccncc2)ccc1Cl` + CCCCCCCCCCCC1=C(O)C(=O)C=C(O)C1=O [Embelin] (first compound 0.2 µM, partner dose 1.2 µM), the “cleaved PARP positive nuclei fraction” value rises from 48.7% to 77.4%.

Compared with `O=C(Nc1ccccc1)c1cc([N+](=O)[O-])ccc1Cl` + CCCCCCCCCCCC1=C(O)C(=O)C=C(O)C1=O [Embelin] (first compound 2 µM, partner dose 1.2 µM), `COC(=O)c1sccc1S(=O)(=O)Nc1ccc(Nc2ccccc2)cc1OC` + COc1cc(N2CCC(N3CCN(C)CC3)CC2)ccc1Nc1ncc(Cl)c(Nc2ccccc2S(=O)(=O)C(C)C)n1 [NVP-TAE684] (first compound 1 µM, partner dose 0.08 µM) is lower in “cleaved PARP positive nuclei fraction” value: 127% for the first, 124% for the second.

First: CCc1ccc(CCOc2ccc(CC3SC(=O)NC3=O)cc2)nc1 (stereo not given) [pioglitazone] + O=C(Nc1ccccc1)c1cc([N+](=O)[O-])ccc1Cl [GW9662] (first compound 2 µM, partner dose 2 µM)
Second: COc1ccc2c(c1)CCC1C2CCC2(C)C(NCCCCCCN3C(=O)C=CC3=O)CCC12 (stereo not given) + CCCCCCCCCCCC1=C(O)C(=O)C=C(O)C1=O [Embelin] (first compound 0.4 µM, partner dose 1.2 µM)
The “cleaved PARP positive nuclei fraction” value of the first is lower: 52.8% for the first, 75.2% for the second.

First: Oc1cc(-c2nc(-c3ccccc3)[nH]c2-c2ccncc2)ccc1Cl + Cc1cc([N+](=O)[O-])ccc1NS(=O)(=O)c1cc(Cl)ccc1Cl [FH535] (first compound 0.2 µM, partner dose 1 µM)
Second: NCC(=O)Nc1ccc(-n2nc(C(F)(F)F)cc2-c2ccc3c(ccc4ccccc43)c2)cc1 + Cn1cc(/C=C2\C(=O)Nc3cccnc32)c2ccccc21 [GW441756] (first compound 1 µM, partner dose 0.4 µM)
The “cleaved PARP positive nuclei fraction” value of the first is lower: 88.2% for the first, 193% for the second.

Going from `Oc1nc(-c2ccc(C(F)(F)F)cc2)nc2c1CSCC2` + O=c1cc(-c2cccc3c2Sc2ccccc2S3)oc(N2CCOCC2)c1 [KU55933] (first compound 2 µM, partner dose 1 µM) to `NCC(=O)Nc1ccc(-n2nc(C(F)(F)F)cc2-c2ccc3c(ccc4ccccc43)c2)cc1` + COc1ccc(-c2ccc3c(N4CCOCC4)nc(N4C[C@@H](C)O[C@@H](C)C4)nc3n2)cc1CO [KU0063794] (first compound 1 µM, partner dose 0.02 µM), the “cleaved PARP positive nuclei fraction” value rises from 114% to 145%.

First: O=C(O)C(=O)Nc1sc2c(c1C(=O)O)CCNC2 + O=C1NC(=O)/C(=C/c2ccc(-c3ccc(F)cc3O)o2)S1 [AS252424] (first compound 1.66667 µM, partner dose 1 µM)
Second: CN(C)S(=O)(=O)c1ccc2c(c1)/C(=C/c1cc3c([nH]1)CCCC3)C(=O)N2 + N#Cc1c(O)c2c(-c3ccc(-c4ccccc4O)cc3)csc2[nH]c1=O [A769662] (first compound 0.4 µM, partner dose 2 µM)
The “cleaved PARP positive nuclei fraction” value of the first is lower: 118% for the first, 137% for the second.

Going from `CN(C)S(=O)(=O)c1ccc2c(c1)/C(=C/c1cc3c([nH]1)CCCC3)C(=O)N2` + Oc1nc(-c2ccc(C(F)(F)F)cc2)nc2c1CSCC2 [XAV939] (first compound 0.4 µM, partner dose 2 µM) to `NCC(=O)Nc1ccc(-n2nc(C(F)(F)F)cc2-c2ccc3c(ccc4ccccc43)c2)cc1` + CCCCCCCCCCCC1=C(O)C(=O)C=C(O)C1=O [Embelin] (first compound 1 µM, partner dose 1.2 µM), the “cleaved PARP positive nuclei fraction” value falls from 115% to 80.7%.
